The labels stand for the following.
B1: Gab1 (Grb2-associated-Binding protein 1) (protein, UniProt Q13480 1-694)
chain: MSGGEVVCSGWLRKSPPEKKLKRYAWKRRWFVLRSGRLTGDPDVLEYYKNDHAKKPIRIIDLNLCQQVDAGLTFNKKEFENSYIFDINTIDRIFYLVADSEEEMNKWVRCICDICGFNPTEEDPVKPPGSSLQAPADLPLAINTAPPSTQADSSSATLPPPYQLINVPPHLETLGIQEDPQDYLLLINCQSKKPEPTRTHADSAKSTSSETDCNDNVPSHKNPASSQSKHGMNGFFQQQMIYDSPPSRAPSASVDSSLYNLPRSYSHDVLPKVSPSSTEADGELYVFNTPSGTSSVETQMRHVSISYDIPPTPGNTYQIPRTFPEGTLGQTSKLDTIPDIPPPRPPKPHPAHDRSPVETCSIPRTASDTDSSYCIPTAGMSPSRSNTISTVDLNKLRKDASSQDCYDIPRAFPSDRSSSLEGFHNHFKVKNVLTVGSVSSEELDENYVPMNPNSPPRQHSSSFTEPIQEANYVPMTPGTFDFSSFGMQVPPPAHMGFRSSPKTPPRRPVPVADCEPPPVDRNLKPDRKVKPAPLEIKPLPEWEELQAPVRSPITRSFARDSSRFPMSPRPDSVHSTTSSSDSHDSEENYVPMNPNLSSEDPNLFGSNSLDGGSSPMIKPKGDKQVEYLDLDLDSGKSTPPRKQKSSGSGSSVADERVDYVVVDQQKTLALKSTREAWTDGRQSTESETPAKSVK

Sequences of proteins named here, by UniProt entry; tags and fusion partners are left off. Residues count along the entry.
UniProt P62993: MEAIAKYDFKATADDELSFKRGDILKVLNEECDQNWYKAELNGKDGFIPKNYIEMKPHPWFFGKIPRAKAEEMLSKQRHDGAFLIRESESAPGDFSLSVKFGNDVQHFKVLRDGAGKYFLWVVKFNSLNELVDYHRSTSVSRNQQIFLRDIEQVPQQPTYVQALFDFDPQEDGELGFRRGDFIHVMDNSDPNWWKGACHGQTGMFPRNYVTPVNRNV
UniProt Q05397: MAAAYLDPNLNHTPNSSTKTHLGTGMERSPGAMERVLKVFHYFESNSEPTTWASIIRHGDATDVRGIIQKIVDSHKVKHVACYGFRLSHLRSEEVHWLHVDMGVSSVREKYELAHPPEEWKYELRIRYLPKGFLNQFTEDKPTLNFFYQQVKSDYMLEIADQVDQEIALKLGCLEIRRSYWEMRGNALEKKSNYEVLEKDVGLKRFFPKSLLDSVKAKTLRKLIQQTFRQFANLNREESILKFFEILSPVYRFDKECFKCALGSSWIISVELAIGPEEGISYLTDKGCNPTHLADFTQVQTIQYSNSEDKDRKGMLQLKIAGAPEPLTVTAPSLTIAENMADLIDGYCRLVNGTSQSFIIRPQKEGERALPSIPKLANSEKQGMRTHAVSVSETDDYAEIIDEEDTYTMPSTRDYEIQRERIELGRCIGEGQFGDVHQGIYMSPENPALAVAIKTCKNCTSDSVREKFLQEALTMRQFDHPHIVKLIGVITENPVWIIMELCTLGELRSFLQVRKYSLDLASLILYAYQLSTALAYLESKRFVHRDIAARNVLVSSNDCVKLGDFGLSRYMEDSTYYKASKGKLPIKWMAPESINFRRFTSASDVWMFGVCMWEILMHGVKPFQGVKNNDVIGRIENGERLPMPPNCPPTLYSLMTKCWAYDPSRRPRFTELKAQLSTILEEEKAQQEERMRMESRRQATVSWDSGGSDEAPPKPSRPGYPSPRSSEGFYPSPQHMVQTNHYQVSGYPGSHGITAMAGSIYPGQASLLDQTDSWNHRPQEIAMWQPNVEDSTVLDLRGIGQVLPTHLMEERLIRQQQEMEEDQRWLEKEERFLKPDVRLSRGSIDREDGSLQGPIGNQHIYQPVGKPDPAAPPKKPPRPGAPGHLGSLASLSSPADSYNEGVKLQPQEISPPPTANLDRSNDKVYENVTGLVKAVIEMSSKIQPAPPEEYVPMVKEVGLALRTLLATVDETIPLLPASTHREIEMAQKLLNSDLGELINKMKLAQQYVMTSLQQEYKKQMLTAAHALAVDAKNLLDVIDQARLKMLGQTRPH
UniProt P18433, residues 20-802: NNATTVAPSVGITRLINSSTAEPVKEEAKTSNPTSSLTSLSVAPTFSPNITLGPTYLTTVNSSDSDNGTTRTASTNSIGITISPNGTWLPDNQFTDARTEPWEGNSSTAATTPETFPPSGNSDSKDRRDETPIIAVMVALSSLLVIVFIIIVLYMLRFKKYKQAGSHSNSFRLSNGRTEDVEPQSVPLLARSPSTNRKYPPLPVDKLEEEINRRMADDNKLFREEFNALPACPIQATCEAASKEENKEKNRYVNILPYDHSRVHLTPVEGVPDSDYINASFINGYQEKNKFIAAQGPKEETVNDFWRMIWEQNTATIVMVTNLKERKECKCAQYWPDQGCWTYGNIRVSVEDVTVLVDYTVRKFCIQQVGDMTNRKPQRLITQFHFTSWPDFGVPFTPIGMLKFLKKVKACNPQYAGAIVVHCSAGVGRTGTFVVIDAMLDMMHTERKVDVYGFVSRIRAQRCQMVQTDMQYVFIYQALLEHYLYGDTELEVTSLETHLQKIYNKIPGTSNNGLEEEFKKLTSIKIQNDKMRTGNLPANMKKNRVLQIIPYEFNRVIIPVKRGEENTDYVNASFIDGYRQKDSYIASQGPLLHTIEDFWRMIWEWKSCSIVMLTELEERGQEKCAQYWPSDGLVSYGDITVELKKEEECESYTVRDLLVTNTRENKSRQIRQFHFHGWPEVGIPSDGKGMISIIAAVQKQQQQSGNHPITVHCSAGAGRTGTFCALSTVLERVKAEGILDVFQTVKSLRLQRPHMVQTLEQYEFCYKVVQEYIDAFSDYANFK

No constants are given. Whether binding was seen depends on the method and setting. Binding seen in cells or lysates may run through a third protein. Some results given as binding are weak or reduced against the parent protein; the word gives no strength.

The target in the test is Flag-tagged Grb2 (Growth factor receptor-bound protein 2), wild type (UniProt P62993). The test can be described thus: co-IP; anti-Flag immunoprecipitation of Flag-Grb2 (Protein A/G agarose, overnight, 4°C) from transfected HEK293T lysates in RIPA buffer (50 mM Tris-HCl pH 7.4, 150 mM NaCl, 1% NP-40, 20 mM N-ethylmaleimide), 4 washes, Western blot; equal Flag-Grb2 with increasing amounts of SUMO1/Ubc9 plasmids; for p-EGFR, p-SHP2 and FAK cells serum-starved 20 h then 100 ng/ml EGF 5 min or 10% serum 20 min. (In general: In western blotting, separated proteins are transferred to a membrane and probed.)
On to “FAK (Focal Adhesion Kinase) (from UniProt Q05397 1-1052) (enzyme)”, for which the binding result is reported as “binds”. The entry for “PTPα (Receptor protein-tyrosine phosphatase α) (from UniProt P18433 20-802)” is “binds”; for B1 it is “binds”.
